Record: PubChem BioAssay AID1259425 (University of Nebraska Medical Center, 2018)
The whole screen tested about 14,000 reagents; below is an unselected part. Some reagents were tested in more than one well and are listed for each. No sequences are given here. The record does not give: the time to read-out.

- Purpose: 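Seek colon cancer weak points whose silencing resembles KSR1 loss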 (primary screen)
- Cells: HCT116 human colon cancer cells
- Reagents: siRNA pool against human genes, 50 nM siRNA
- Read-out: 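After 50 nM siRNA pool, branched-DNA assay measures six marker transcripts per well, minus blank, normalised to the geometric mean of two housekeeping transcripts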
- Reading the numbers: BNIP3L mRNA: higher = more BNIP3L transcript after knockdown; NDRG1 mRNA: higher = more NDRG1 transcript after knockdown; BNIP3 mRNA: higher = more BNIP3 transcript after knockdown; ALDOC mRNA: higher = more ALDOC transcript after knockdown; ACSL5 mRNA: higher = more ACSL5 transcript after knockdown

| gene | BNIP3L mRNA, set 1 | NDRG1 mRNA, set 1 | BNIP3 mRNA, set 1 | ALDOC mRNA, set 1 | ACSL5 mRNA, set 1 |
| --- | --- | --- | --- | --- | --- |
| RNF126 | 0.248 | 0.376 | 0.467 | 0.0569 | 0.136 |
| GAB2 | 0.121 | 0.113 | 0.387 | 0.0168 | 0.224 |
| VAT1L | 0.144 | 0.0653 | 0.235 | 0.0269 | 0.211 |
| RHNO1 | 0.149 | 0.115 | 0.234 | 0.0747 | 0.356 |
| EIF1B | 0.0959 | 0.208 | 0.326 | 0.0152 | 0.239 |
| SERINC3 | 0.0779 | 0.0756 | 0.263 | 0.0303 | 0.0751 |
| ZNF208 | 0.129 | 0.193 | 0.324 | 0.0407 | 0.146 |
| ZP3 | 0.0627 | 0.105 | 0.241 | 0.0168 | 0.178 |
| ZNF777 | 0.0371 | 0.145 | 0.19 | 0.0372 | 0.117 |
| CGB1 | 0.0691 | 0.0775 | 0.182 | 0.0136 | 0.0784 |
| CLDN8 | 0.19 | 0.14 | 0.0888 | 0.0318 | 0.156 |
| TAOK1 | 0.0928 | 0.0657 | 0.451 | 0.00804 | 0.166 |
| RBM17 | 0.0633 | 0.602 | 0.15 | 0.0209 | 0.239 |
| SPHK2 | 0.171 | 0.165 | 0.38 | 0.0088 | 0.399 |
| RPL23A | 0.305 | 0.714 | 0.476 | 0.0345 | 0.266 |
| KCND2 | 0.0677 | 0.23 | 0.302 | 0.0265 | 0.197 |
| ZNF263 | 0.105 | 0.291 | 0.383 | 0.0296 | 0.118 |
| CENPH | 0.087 | 0.424 | 0.118 | 0.0166 | 0.141 |
| KBTBD7 | 0.0778 | 0.37 | 0.383 | 0.0197 | 0.279 |
| KBTBD7 | 0.157 | 0.203 | 0.384 | 0.0556 | 0.465 |
| RNF13 | 0.0828 | 0.114 | 0.319 | 0.0248 | 0.141 |
| AIPL1 | 0.0702 | 0.0489 | 0.214 | 0.0173 | 0.138 |
| HYDIN | 1.97 | 8.17 | 4.2 | 1.13 | 0.359 |
| CDV3 | 0.101 | 0.122 | 0.272 | 0.0191 | 0.0847 |
| B4GALT4 | 0.0751 | 0.393 | 0.484 | 0.0149 | 0.0829 |
| FAM184A | 0.17 | 0.215 | 0.383 | 0.0291 | 0.262 |

Next part, starting with the last 3 of the part before.
| gene | BNIP3L mRNA, set 1 | NDRG1 mRNA, set 1 | BNIP3 mRNA, set 1 | ALDOC mRNA, set 1 | ACSL5 mRNA, set 1 |
| --- | --- | --- | --- | --- | --- |
| CDV3 | 0.101 | 0.122 | 0.272 | 0.0191 | 0.0847 |
| B4GALT4 | 0.0751 | 0.393 | 0.484 | 0.0149 | 0.0829 |
| FAM184A | 0.17 | 0.215 | 0.383 | 0.0291 | 0.262 |
| PDGFRB | 0.0406 | 0.108 | 0.234 | 0.00559 | 0.293 |
| ST7 | 0.122 | 0.109 | 0.24 | 0.05 | 0.233 |
| WDTC1 | 0.145 | 0.223 | 0.318 | 0.0252 | 0.164 |
| ACP1 | 0.0937 | 0.248 | 0.225 | 0.0243 | 0.18 |
| PRPF39 | 0.156 | 0.143 | 0.247 | 0.0205 | 0.0574 |
| ATG12 | 0.149 | 0.0973 | 0.207 | 0.0174 | 0.127 |
| GSAP | 0.0866 | 0.189 | 0.217 | 0.0282 | 0.135 |
| FLJ21369 (retired record) | 0.111 | 0.299 | 0.342 | 0.0446 | 0.257 |
| HK2 | 0.191 | 0.0998 | 1.06 | 0.0307 | 0.962 |
| CCNA1 | 0.11 | 0.142 | 0.243 | 0.0301 | 0.171 |
| KDELR2 | 0.0931 | 0.137 | 0.248 | 0.0278 | 0.0963 |
| HSPG2 | 0.149 | 0.286 | 0.268 | 0.0246 | 0.154 |
| CC2D2A | 0.101 | 0.257 | 0.146 | 0.0628 | 0.194 |
| ZNF3 | 0.0907 | 0.125 | 0.33 | 0.0428 | 0.117 |
| IL11RA | 0.111 | 0.0952 | 0.294 | 0.0187 | 0.0936 |
| PLAA | 0.327 | 0.912 | 0.435 | 0.03 | 0.256 |
| DUX3 | 0.0489 | 0.0464 | 0.212 | 0.00759 | 0.192 |
| WNT3 | 0.118 | 0.178 | 0.259 | 0.0158 | 0.129 |
| GADD45B | 0.197 | 0.117 | 0.326 | 0.0237 | 0.118 |
| RABL2B | 0.11 | 0.108 | 0.369 | 0.023 | 0.172 |
| CCDC93 | 0.0615 | 1.08 | 0.247 | 0.0243 | 0.216 |
| LPCAT2 | 0.0954 | 0.217 | 0.169 | 0.0195 | 0.316 |
| ZNF329 | 0.12 | 0.215 | 0.287 | 0.0192 | 0.172 |
| OCLN | 0.412 | 1.04 | 0.577 | 0.0247 | 0.139 |
| HEATR5A | 0.123 | 0.136 | 0.361 | 0.0268 | 0.187 |
| RMND5A | 0.0664 | 0.0868 | 0.31 | 0.0473 | 0.156 |
| NRN1 | 0.132 | 0.315 | 0.449 | 0.00896 | 0.191 |
| NPTX1 | 0.0512 | 0.143 | 0.228 | 0.0126 | 0.142 |
| YIPF4 | 0.165 | 0.103 | 0.191 | 0.0582 | 0.499 |
| KRT35 | 0.129 | 0.1 | 0.321 | 0.02 | 0.123 |
| DLAT | 0.0687 | 0.164 | 0.207 | 0.0085 | 0.159 |
| COX5A | 0.131 | 0.147 | 0.292 | 0.0216 | 0.0995 |
| EHF | 0.1 | 0.539 | 0.369 | 0.00397 | 0.345 |
| FERMT1 | 0.259 | 0.573 | 0.75 | 0.0837 | 0.519 |
| PCDHA4 | 0.0557 | 0.0702 | 0.221 | 0.0188 | 0.101 |
| SMARCA5 | 0.108 | 0.294 | 0.149 | 0.0288 | 0.148 |
| NUTF2 | 0.0527 | 0.15 | 0.238 | 0.0304 | 0.075 |
